Earlier results, collected in US6407239B1, “Aromatic esters of camptothecins and methods to treat cancers” (priority 1999, dated 2002).

Conditions: cited from earlier work

SMILES: CC[C@@]1(O)C(=O)OCc2c1cc1n(c2=O)Cc2cc3ccccc3nc2-1 [Camptothecin]
- solubility in water: insoluble in water
